Measured values from patent US12473332B2, “Modified peptides and associated methods of use” (Advanced Technologies For Novel Therapeutics, LLC, priority 2019, dated 2025).
For some assays here: Part of at least one peptide drawing is inferred or uncertain, most often the ends. For some assays here: At least one compound was matched to its structure with a doubt left. Where no end group is shown, it is not given here.

Tests used:
AKT = AKT activity in cultured neurons treated with PKA inhibitor or activator (AKT phosphorylation at Thr-308 and Ser-473); format: cell-based
Experimental: To evaluate the significance of the AKT-PKAc interaction, kinase inhibitors were employed. […] Thus, cultured neurons were treated with the selective PKA inhibitor, H-89, and the potent PKA activator, forskolin, and AKT activity was analyzed.

N2a cells = experiment: MTT-based proliferation assay; format: cell-based; conditions: relative to wild-type ZaTa
Experimental: AKT affects a network that positively regulates G1/S cell cycle progression through several mechanisms that involve the expression and subcellular localization of the CDK inhibitor p27^Kip1 (Blain and Massague (2002) Nat. Med. 8:1076-1078; Liang, et al. (2002) supra; Shin, et al. (2002) supra; Viglietto, et al. (2002) supra). Based on these studies, the effect of ZaTa peptide on cell proliferation was assessed. […] Capturing live images of cultured N2a cells in the presence of different concentrations of the ZaTa peptide confirmed an obvious reduction in the number of dividing cells.
Based on the importance of the C-terminal arm of ZaTa for its inhibitory action on AKT, it was determined whether the free hydroxyl groups on residues Thr-8, Thr-10 (equivalent to Thr-197 in full-length PKAc), Thr-14 and Tyr-17 were important for the biological activity of this peptide. Mutants of ZaTa peptide were synthesized by replacing Thr-8 or Thr-10 residues with Asp (ZaTa^T8D and ZaTa^T10D, respectively) as an amino acid with a negatively charged side chain. Mutants of ZaTa with the hydrophilic positively charged amino acid Arg at either position Thr-14 or Tyr-17 (ZaTa^T14R and ZaTa^Y17R, respectively) were also synthesized. […] The inhibitory effect of ZaTa peptide on cell proliferation was reversible, to a large extent, after the removal of ZaTa treatment.

Compound	activity of AKT (activation-dependent phosphorylation at Thr-308 and Ser-473) (AKT)	change of the inhibitory effect of ZaTa on cell proliferation by mutation (N2a cells)
C=C[C@@]1(C)CC(=O)[C@]2(O)[C@@]3(C)[C@@H](O)CCC(C)(C)[C@@H]3[C@H](O)[C@H](OC(C)=O)[C@@]2(C)O1 [forskolin]	opposing effect	–
AKRVKGRDWTLCGTPEY [ZaTa^T8D]	–	significantly diminished
AKRVKGRTWTLCGTPER [ZaTa^Y17R]	–	considerably augmented
AKRVKGRTWDLCGTPEY [ZaTa^T10D]	–	significantly diminished
AKRVKGRTWTLCGRPEY [ZaTa^T14R]	–	considerably augmented
